PubChem BioAssay AID1259308, NCATS | 2017
In all, the deposit lists about 59,000 reagents; below is a part drawn at random. In the full data, about 1,510 (2.6%) are marked active. 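Calls use total luciferase alone and ignore viability, so some active siRNAs may act by altering cell number.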 Further read-outs or replicates are left out here.

Assay: 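Knock-downs that increase output of a recombinant reporter protein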 (primary screen)
Cell system: human HEK293 embryonic kidney cells stably expressing firefly luciferase (HEK-CMV-Luc2-Hygro)
Knock-down reagent: single siRNA against human genes, 0.8 pmol siRNA per well
Duration: 72 h
Detection: 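Luciferase light (ONE-Glo) measured on one replicate plate set and viability (CellTiter-Glo) on the other, scaled to a negative control siRNA, with robust z-scores and luciferase per cell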
Direction: total luciferase, z-score: higher = more reporter protein produced
Rule for the call: 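An siRNA counts as active if its total luciferase robust z-score exceeds 3; genes with two or more such siRNAs out of three were retested with fresh siRNAs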
Calls: active = raised luciferase; inactive = no rise

{"Target gene":"STOM (GeneID 2040)","PubChem SID":"SID160732674","total luciferase, z-score":0.318,"call":"inactive"}
{"Target gene":"STOM (GeneID 2040)","PubChem SID":"SID160760775","total luciferase, z-score":-0.173,"call":"inactive"}
{"Target gene":"STOM (GeneID 2040)","PubChem SID":"SID160760786","total luciferase, z-score":-0.638,"call":"inactive"}
{"Target gene":"IFI27 (GeneID 3429)","PubChem SID":"SID160723874","total luciferase, z-score":-2.16,"call":"inactive"}
{"Target gene":"IFI27 (GeneID 3429)","PubChem SID":"SID160775554","total luciferase, z-score":0.25,"call":"inactive"}
{"Target gene":"IFI27 (GeneID 3429)","PubChem SID":"SID160775555","total luciferase, z-score":0.323,"call":"inactive"}
{"Target gene":"FOLH1 (GeneID 2346)","PubChem SID":"SID160766956","total luciferase, z-score":0.621,"call":"inactive"}
{"Target gene":"FOLH1 (GeneID 2346)","PubChem SID":"SID160766966","total luciferase, z-score":0.263,"call":"inactive"}
{"Target gene":"FOLH1 (GeneID 2346)","PubChem SID":"SID160766976","total luciferase, z-score":1.04,"call":"inactive"}
{"Target gene":"RPS18P10 (GeneID 729293)","PubChem SID":"SID160734510","total luciferase, z-score":-2.02,"call":"inactive"}
{"Target gene":"RPS18P10 (GeneID 729293)","PubChem SID":"SID160772622","total luciferase, z-score":-1.66,"call":"inactive"}
{"Target gene":"RPS18P10 (GeneID 729293)","PubChem SID":"SID160772623","total luciferase, z-score":-0.826,"call":"inactive"}
{"Target gene":"NFIX (GeneID 4784)","PubChem SID":"SID160778017","total luciferase, z-score":-0.247,"call":"inactive"}
{"Target gene":"NFIX (GeneID 4784)","PubChem SID":"SID160778018","total luciferase, z-score":-0.757,"call":"inactive"}
{"Target gene":"NFIX (GeneID 4784)","PubChem SID":"SID160778019","total luciferase, z-score":0.528,"call":"inactive"}
{"Target gene":"PDIA3 (GeneID 2923)","PubChem SID":"SID160774614","total luciferase, z-score":-0.0805,"call":"inactive"}
{"Target gene":"PDIA3 (GeneID 2923)","PubChem SID":"SID160774615","total luciferase, z-score":0.0175,"call":"inactive"}
{"Target gene":"PDIA3 (GeneID 2923)","PubChem SID":"SID160774616","total luciferase, z-score":-1.06,"call":"inactive"}
{"Target gene":"LRRFIP1 (GeneID 9208)","PubChem SID":"SID160721718","total luciferase, z-score":2.29,"call":"inactive"}
{"Target gene":"LRRFIP1 (GeneID 9208)","PubChem SID":"SID160721721","total luciferase, z-score":-1.49,"call":"inactive"}
{"Target gene":"LRRFIP1 (GeneID 9208)","PubChem SID":"SID160721722","total luciferase, z-score":-0.74,"call":"inactive"}
{"Target gene":"GOLGB1 (GeneID 2804)","PubChem SID":"SID160772563","total luciferase, z-score":-0.0575,"call":"inactive"}
{"Target gene":"GOLGB1 (GeneID 2804)","PubChem SID":"SID160772566","total luciferase, z-score":0.0106,"call":"inactive"}
{"Target gene":"GOLGB1 (GeneID 2804)","PubChem SID":"SID160772576","total luciferase, z-score":2.03,"call":"inactive"}
{"Target gene":"ABCC8 (GeneID 6833)","PubChem SID":"SID160717552","total luciferase, z-score":-0.206,"call":"inactive"}
{"Target gene":"ABCC8 (GeneID 6833)","PubChem SID":"SID160717553","total luciferase, z-score":1,"call":"inactive"}
{"Target gene":"ABCC8 (GeneID 6833)","PubChem SID":"SID160731809","total luciferase, z-score":0.456,"call":"inactive"}
{"Target gene":"TRPC3 (GeneID 7222)","PubChem SID":"SID160718357","total luciferase, z-score":0.00161,"call":"inactive"}
{"Target gene":"TRPC3 (GeneID 7222)","PubChem SID":"SID160718358","total luciferase, z-score":0.071,"call":"inactive"}
{"Target gene":"TRPC3 (GeneID 7222)","PubChem SID":"SID160718359","total luciferase, z-score":-0.549,"call":"inactive"}
{"Target gene":"GALNT1 (GeneID 2589)","PubChem SID":"SID160769061","total luciferase, z-score":-0.532,"call":"inactive"}
{"Target gene":"GALNT1 (GeneID 2589)","PubChem SID":"SID160769067","total luciferase, z-score":-1.22,"call":"inactive"}
{"Target gene":"GALNT1 (GeneID 2589)","PubChem SID":"SID160769074","total luciferase, z-score":-1.1,"call":"inactive"}

Already shown: an excerpt of the list.
{"Target gene":"STOM (GeneID 2040)","PubChem SID":"SID160760775","total luciferase, z-score":-0.173,"call":"inactive"}
{"Target gene":"STOM (GeneID 2040)","PubChem SID":"SID160760786","total luciferase, z-score":-0.638,"call":"inactive"}
{"Target gene":"IFI27 (GeneID 3429)","PubChem SID":"SID160723874","total luciferase, z-score":-2.16,"call":"inactive"}
